Article PMC3737563, “Investigation of DNA sequence recognition by a streptomycete MarR family transcriptional regulator through surface plasmon resonance and X-ray crystallography” (Nucleic Acids Research, 2013)

Assays:
[1] = molecular target: T1, SCO3205 (MarR family regulator) (Streptomyces coelicolor) (UniProt Q9KYU1); assay: SPR (ReDCaT); conditions: HBS-EP+ buffer: 10 mM HEPES pH 7.4, 150 mM NaCl, 3 mM EDTA, 0.05% (v/v) surfactant P20, 20 C, Biacore T200, ReDCaT SA chip, high values mean tight binding, recombinant protein, residues 1-163, protein details: N-terminal His tag plus TEV site, not removed, label: biotin linker S6 hybridised to overhang
T1 sequence (looked up): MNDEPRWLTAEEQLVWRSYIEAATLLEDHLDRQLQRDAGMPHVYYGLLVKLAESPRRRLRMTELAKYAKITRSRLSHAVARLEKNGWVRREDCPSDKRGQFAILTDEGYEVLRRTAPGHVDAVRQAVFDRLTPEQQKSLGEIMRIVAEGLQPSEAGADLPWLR

[2] = molecular target: T1, SCO3205 (MarR family regulator) (Streptomyces coelicolor); assay: SPR; conditions: SPR (ReDCaT, Biacore T200) in HBS-EP+: 10 mM HEPES pH 7.4, 150 mM NaCl, 3 mM EDTA, 0.05% P20, 20°C, recombinant protein, residues 1-163, protein details: N-terminal His tag plus TEV site, not removed, label: biotin linker S6 hybridised to overhang
[3] = 100 nM SCO3205 dimer, counted as no binding
[4] = 100 nM SCO3205 dimer, letters put together from the description, counted as no binding

| Sequence | binding signal ([1]; 50 nM SCO3205 dimer) [%Rmax] | further results |
| --- | --- | --- |
| ACGGCACGTAAAGATTGAGA (double strand) [O3204_LH_Δ16] | – | binding signal [1, 3]: 1.4 %Rmax |
| ACGGCACGTAAAGATTGAGAGT (double strand) [O3204_LH_Δ14] | – | binding signal [1, 3]: 1.4 %Rmax |
| ACGGCACGTAAAGATTGAGAGTTC (double strand) [O3204_LH_Δ12] | – | binding signal [1, 3]: 1.5 %Rmax |
| ATCTTTACGTGCCGTCAATCTACGCCGAT (double strand) [fragment_8] | – | binding signal [1, 4]: 0.95 %Rmax |
| CAAGGAACCGTCTCGTACAGTGGGACACA (double strand) [fragment_14] | – | binding signal [1, 4]: 0.7 %Rmax |
| CAATACATGAACTCTCAATCTTTA (double strand) [O3204_T6A] | 89.2 | – |
| CAATACCTGAACTCTCAATCTTTA (double strand) [O3204_T6C] | 90.7 | – |
| CAATACGTGAACTCTCAATCTTTA (double strand) [O3204_T6G] | 97.1 | – |
| CAATACTAGAACTCTCAATCTTTA (double strand) [O3204_T7A] | 96.5 | – |
| CAATACTCGAACTCTCAATCTTTA (double strand) [O3204_T7C] | 74.2 | – |
| CAATACTGGAACTCTCAATCTTTA (double strand) [O3204_T7G] | 88.1 | – |
| CAATACTTGAACTCACAATCTTTA (double strand) [O3204_T14A] | 109 | – |
| CAATACTTGAACTCCCAATCTTTA (double strand) [O3204_T14C] | 85.3 | – |
| CAATACTTGAACTCGCAATCTTTA (double strand) [O3204_T14G] | 109 | – |
| CAATACTTGAACTCTAAATCTTTA (double strand) [O3204_C15A] | 111 | – |
| CAATACTTGAACTCTCAATCTTTA (double strand) [O3204_WT] | 98.6 | – |
| CAATACTTGAACTCTCACTCTTTA (double strand) [O3204_A17C] | 103 | – |
| CAATACTTGAACTCTCAGTCTTTA (double strand) [O3204_A17G] | 105 | – |
| CAATACTTGAACTCTCATTCTTTA (double strand) [O3204_A17T] | 100 | – |
| CAATACTTGAACTCTCCATCTTTA (double strand) [O3204_A16C] | 102 | – |
| CAATACTTGAACTCTCGATCTTTA (double strand) [O3204_A16G] | 73.3 | – |
| CAATACTTGAACTCTCTATCTTTA (double strand) [O3204_A16T] | 104 | – |

| Sequence | binding signal ([1]; 50 nM SCO3205 dimer) [%Rmax] | further results |
| --- | --- | --- |
| CAATACTTGAACTCTGAATCTTTA (double strand) [O3204_C15G] | 95.4 | – |
| CAATACTTGAACTCTTAATCTTTA (double strand) [O3204_C15T] | 102 | – |
| CAATACTTGACCTCTCAATCTTTA (double strand) [O3204_A10C] | 96 | – |
| CAATACTTGAGCTCTCAATCTTTA (double strand) [O3204_A10G] | 95.6 | – |
| CAATACTTGATCTCTCAATCTTTA (double strand) [O3204_A10T] | 104 | – |
| CAATACTTGCACTCTCAATCTTTA (double strand) [O3204_A9C] | 93 | – |
| CAATACTTGGACTCTCAATCTTTA (double strand) [O3204_A9G] | 78.7 | – |
| CAATACTTGGACTCTCAATCTTTA / TAAAGATTGAGAGTCCAAGTATTGCCTACCCTACGTCCTCCTGC [O3204_A9G] | – | binding result ([2]; 50 nM SCO3205): binds more weakly |
| CAATACTTGTACTCTCAATCTTTA (double strand) [O3204_A9T] | 99.4 | – |
| CGAGACGGTTCCTTGAACATTA (double strand) [O3205_LH_Δ14] | – | binding signal [1, 3]: 1.6 %Rmax |
| CGAGACGGTTCCTTGAACATTAAACA / TGTTTAATGTTCAAGGAACCGTCTCGCCTACCCTACGTCCTCCTGC [O3205_LH_Δ10] | – | binding result [2]: binds more weakly |
| CGAGACGGTTCCTTGAACATTAAACAAA / TTTGTTTAATGTTCAAGGAACCGTCTCGCCTACCCTACGTCCTCCTGC [O3205_LH_Δ8] | – | binding result [2]: binds more weakly |
| CGAGACGGTTCCTTGAACATTAAACAAAAT / ATTTTGTTTAATGTTCAAGGAACCGTCTCGCCTACCCTACGTCCTCCTGC [O3205_LH_Δ6] | – | binding result ([2]; LH boundary): binds |
| CGGACGGCGGCGGCCATGGCTACTCCAAT (double strand) [fragment_2] | – | binding signal [1, 4]: 0.45 %Rmax |
| CGGCGGCCATGGCTACTCCAATACTTGAA (double strand) [fragment_3] | – | binding signal [1, 4]: 0.5 %Rmax |
| CGTGCCGTCAATCTACGCCGATTTTGTTT (double strand) [fragment_9] | – | binding signal [1, 4]: 0.6 %Rmax |
| GACCTGTTCAAAGCTCAAGCAGAA / TTCTGCTTGAGCTTTGAACAGGTCCCTACCCTACGTCCTCCTGC [O7815_24mer] | – | binding signal (% of theoretical Rmax) ([2]; 100 nM SCO3205, fully lost during dissociation): 50 |
| GCGCTCCCGGACGGCGGCGGCCATGGCTA (double strand) [fragment_1] | – | binding signal [1, 4]: 0.55 %Rmax |
| TAATGTTCAAGGAACCGTCTCGTACAGTG (double strand) [fragment_13] | – | binding signal [1, 4]: 0.65 %Rmax |
| TACTTGAACTCTCAATCTTTACGTGCCGT / ACGGCACGTAAAGATTGAGAGTTCAAGTACCTACCCTACGTCCTCCTGC [fragment_6] | – | binding signal (% of theoretical Rmax) ([2]; 100 nM SCO3205): 100 |
| TTGATGTTGAATGTTCAACCAGTC / GACTGGTTGAACATTCAACATCAACCTACCCTACGTCCTCCTGC [O5533_24mer] | – | binding signal (% of theoretical Rmax) ([2]; 100 nM SCO3205): 100 |
| TTTTGTTTAATGTTCAAGGAACCGTCTCG / CGAGACGGTTCCTTGAACATTAAACAAAACCTACCCTACGTCCTCCTGC [fragment_12] | – | binding signal (% of theoretical Rmax) ([2]; 100 nM SCO3205): 100 |

Construct, isoform or probe ends are uncertain for at least one entry. For some assays here: The comparison behind a weaker result is the experiment's own reference, which may not be listed here. For some assays here: At least one verdict was read from the data and is not stated in words by the source. Protein sequences can lack the tags named with them. For some assays here: The direction of at least one scale is not stated here.
